Laboratory results: PubChem BioAssay AID602196 (INSERM, 2012)
Purpose: 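Knock-downs that protect lung cancer cells from cisplatin or sensitise them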. Cell system: human A549 lung cancer cells. Knock-down reagent: siRNA pair against human genes. Duration: 48 h transfection before cisplatin; time from cisplatin to read-out not stated. Treatment: cisplatin at a dose killing half of control-siRNA cells; exact dose and duration not given. Measured: 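Cisplatin cell death as a shift from the 50% death seen with control siRNA; siRNAs toxic or growth-blocking alone scored 0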. Scale: two-siRNA summed score (-2 to +2): higher = both siRNAs protect from cisplatin killing; -2 means both sensitise. Rule for the call: 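siRNAs harmful alone (LDH or WST-1) get 0; others get +1 for less and -1 for more cisplatin killing; genes are active when the two siRNAs give the same sign, summing to ±2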. Meaning of the calls: active = both siRNAs shift cisplatin killing the same way; inactive = no consistent shift, or siRNA harmful alone.
The deposit covers about 23,000 reagents; this is an unselected part. 455 of them (2%) count as active. 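Active includes both protection and sensitisation; some change values fall well beyond the stated -50 to +50 range.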 The numbers tell different reagents against one gene apart. Further read-outs or replicates are left out here. Not given: the amount of reagent.

two-siRNA summed score (-2 to +2), by gene and reagent
LOC402418: #1 1 inactive
VPS16: #1 0 inactive
PRB4: #1 0 inactive
LOC402675: #1 0 inactive
RCAN1: #1 1 inactive
LOC388353: #1 1 inactive
AAAS: #1 0 inactive
LILRA2: #1 1 inactive
AVPR1B: #1 -1 inactive
LOC401492: #1 0 inactive
TAF6L: #1 0 inactive
STGC3 (retired record): #1 0 inactive
ZNF576: #1 0 inactive
TMC7: #1 0 inactive
APBA1: #1 -1 inactive
RBP4: #1 -1 inactive
TMEM89: #1 0 inactive
ABCA13: #1 1 inactive
C1QL2: #1 0 inactive
SLC25A32: #1 0 inactive
CCNY: #1 0 inactive
LOC388701: #1 0 inactive
IL1RAP: #1 0 inactive
CTDP1-DT: #1 0 inactive
LYPD2: #1 1 inactive
TAC4: #1 0 inactive
LOC389339: #1 1 inactive
ATP2B2: #1 1 inactive
IGF2R: #1 -1 inactive
COPS7A: #1 0 inactive
LOC441055: #1 0 inactive
FBXO33: #1 1 inactive
KCNB1: #1 -2 active
LOC400050: #1 0 inactive
POLR2M: #1 0 inactive
ZCCHC17: #1 0 inactive
TMEM203: #1 0 inactive
FLACC1: #1 0 inactive
FKBP4P2: #1 -2 active
SLC38A6: #1 0 inactive
LINC02138: #1 0 inactive
PECR: #1 0 inactive
FAM111A: #1 0 inactive
QARS1: #1 0 inactive
C16orf46: #1 0 inactive
WDR53: #1 0 inactive
FSIP1: #1 0 inactive
PPP3CB: #1 1 inactive
TNKS: #1 0 inactive
LOC442012: #1 0 inactive
SPAG9: #1 0 inactive
GFER: #1 -1 inactive
CCDC74A: #1 0 inactive
DKC1: #1 0 inactive
SYNE3: #1 0 inactive; #2 0 inactive
TTBK2: #1 0 inactive
